Results published in article PMC8989981, “Negative feedback of SNRK to circ-SNRK regulates cardiac function post-myocardial infarction” (Cell Death and Differentiation, 2021).
No constants are given. Whether binding was seen depends on the method and setting. In cells and extracts the contact can be indirect. Some results given as binding are weak or reduced against the parent protein; the word gives no strength.

Molecular target: T1, SNRK (sucrose nonfermenting 1-related kinase) (rat (endogenous in NRCMs)) (UniProt Q63553)
T1 sequence: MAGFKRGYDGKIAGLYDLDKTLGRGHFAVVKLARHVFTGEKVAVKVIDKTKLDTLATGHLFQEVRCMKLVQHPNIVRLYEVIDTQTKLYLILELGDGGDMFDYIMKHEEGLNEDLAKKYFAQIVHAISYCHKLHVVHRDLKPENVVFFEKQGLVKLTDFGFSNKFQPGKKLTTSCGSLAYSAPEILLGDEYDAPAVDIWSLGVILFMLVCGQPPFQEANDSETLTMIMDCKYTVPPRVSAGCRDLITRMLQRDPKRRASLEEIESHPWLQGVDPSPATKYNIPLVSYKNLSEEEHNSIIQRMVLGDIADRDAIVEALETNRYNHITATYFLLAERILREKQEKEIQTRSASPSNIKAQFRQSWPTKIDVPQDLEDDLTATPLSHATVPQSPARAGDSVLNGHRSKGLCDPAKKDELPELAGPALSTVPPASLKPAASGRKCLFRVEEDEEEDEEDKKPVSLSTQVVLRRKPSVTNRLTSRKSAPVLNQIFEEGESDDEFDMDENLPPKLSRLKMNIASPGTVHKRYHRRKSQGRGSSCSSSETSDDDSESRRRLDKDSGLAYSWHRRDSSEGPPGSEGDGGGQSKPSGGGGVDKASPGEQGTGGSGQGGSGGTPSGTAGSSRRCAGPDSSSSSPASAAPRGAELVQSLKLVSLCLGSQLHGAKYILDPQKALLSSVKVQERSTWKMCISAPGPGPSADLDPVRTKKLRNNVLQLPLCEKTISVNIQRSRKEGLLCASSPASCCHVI
Experiment: co-IP; proteins of NRCMs (neonatal rat cardiomyocytes); precipitation of SNRK, NOVA1 or activated Caspase 3 and immunoblot of the partner; no co-IP method is described

B1: NOVA1 (NOVA alternative splicing regulator 1) (natural protein, rat (endogenous in NRCMs), UniProt Q80WA4 1-474, looked up)
chain: MAAAPIQQNGTHTGVPIDLDPPDSRKRPLEAPPEAGSTKRTNTGEDGQYFLKVLIPSYAAGSIIGKGGQTIVQLQKETGATIKLSKSKDFYPGTTERVCLIQGTIEALNAVHGFIAEKIREMPQNVAKTEPVSILQPQTTVNPDRIKQVKIIVPNSTAGLIIGKGGATVKAIMEQSGAWVQLSQKPDGINLQERVVTVSGEPEQNRKAVELIIQKIQEDPQSGSCLNISYANVTGPVANSNPTGFPYANTAEVLPTAAAAAGLLGHANLAGVAAFPAVLSGFTGNDLVAITSALNTLASYGYNLNTLGLGLSQAAATGALAAAAASANPAAAAANLLATYASEASASGSTAGGTAGTFALGSLAAATAATNGYFGAASPLAASAILGTEKSTDGSKDVVEIAVPENLVGAILGKGGKTLVEYQELTGARIQISKKGEFVPGTRNRKVTITGTPAATQAAQYLITQRITYEQGVR
notes: NOVA1 (NOVA alternative splicing regulator 1), rat, as present in neonatal rat cardiomyocytes; also called protein NOVA1; source: endogenous, NRCMs (neonatal rat cardiomyocytes), in lysate / total protein
In the case of B1, the binding is reported as “binds”.
